# Laboratory results reported in patent US12268747B2, “Polypeptides having anti-senescent effects and uses thereof” (OneSkin, Inc., priority 2019, dated 2025).
# At least one peptide structure holds a part that was inferred or is arguable (an end, a ring closure or a residue). Peptide text beside a SMILES is read from it.
# Legend:
# [1] = test system: pAkt S473; assay: Akt S473 phosphorylation western blot in human skin equivalents; assay type: cell-based; conditions: 1 μM, 5 days
# Procedure: In order to shed light into the mechanism of action of Peptide 14 and similar Peptide 13, Akt S473 phosphorylation (FIG. 8, panel A), senescence associated β-galactosidase staining (FIG. 8, panel B), as well as mRNA expression (FIG. 8, panel C) were investigated. For Akt S473 phosphorylation analysis using western blotting, human primary fibroblasts and keratinocytes were used. These cells were used to build human skin equivalents, which were kept in a 5% CO2, 37° C. and 95% humidity atmosphere air liquid interface. Then, skin equivalents were treated with 1 μM of either Peptide 14 or Peptide 13 for 5 days, and protein analysis was performed on the skin equivalents. Protein was isolated and quantified. Equal amounts of protein were loaded in polyacrylamide gels and transferred into a nitrocellulose membrane. […] Relative pAkt S473/GAPDH signal was compared between treated and non-treated samples. For senescence associated B-galactosidase staining experiments, fibroblasts were used. […] Total RNA was isolated, samples were reverse transcribed, and mRNA expression of GAPDH, sirtuin 6 (SIRT6), BLM, and exonuclease 1 (EXO1) genes were determined using qPCR. […] CT values were analyzed using the 2^−ΔΔCt method. […] Data was analyzed using a T-test. Statistical significance was determined as p values equal or lower than 0.05 (FIG. 8).
# [2] = test system: human skin; assay: Topical formulation applied to human skin; assay type: in vivo; conditions: for appearance of wrinkles: topical formulation with niacin, vitamin E, preservative, emulsifier
# [3] = test system: Caenorhabditis elegans; assay: C. elegans healthspan and lifespan; assay type: in vivo
# Procedure: Senotherapeutic strategies can be linked to healthspan and lifespan extension in vivo. In order to assess whether Peptide 14 promotes extended healthspan and lifespan, Caenorhabditis elegans worms were used. Peptide 14 was added in the worm media (M9 buffer media) at different concentrations of 1 μM or 2 μM. Negative control worms received vehicle only. Two healthspan parameters were assessed i) pharyngeal pumping and ii) worm movement. Lifespan was also determined. For pharyngeal pumping analysis, 15 worms had their pharynx movement (pumping) observed daily and counted for 20 seconds. This experiment was repeated 3 times, by 2 different blind observers, employing different populations of animals at different days. Statistical difference was detected by analyzing each individual time point by One-Way ANOVA and Dunnet's post hoc test. All groups were compared with the H2O group. For worm movement analysis, the basic movement of C. elegans, also called thrashing, was measured daily for 15 worms. Observation duration was 30 seconds. The experiment was repeated 3 times, by 2 different blind observers, employing different populations of worms at different days. Statistical difference was detected by analyzing each individual time point by One-Way ANOVA and Dunnet's post hoc, and all groups were compared with the H2O group. For lifespan analysis, 15 worms had their lifespan observed daily until the last worm died. This experiment was repeated 3 times, by 2 different blind observers, employing different populations of worms at different days. The average lifespan was measured. Statistical difference was detected by analyzing each individual time point by One-Way ANOVA and Dunnet's post hoc, and all groups were compared with the H2O group (FIG. 18).
smiles,measurement,setting,value
"CC[C@H](C)[C@H](NC(=O)CNC(=O)[C@H](CCCCN)NC(=O)[C@H](CC(C)C)NC(=O)[C@H](Cc1c[nH]c2ccccc12)NC(=O)[C@H](Cc1c[nH]cn1)NC(=O)[C@H](CCCCN)NC(=O)[C@H](C)NC(=O)[C@@H](NC(=O)[C@@H](N)CCC(=O)O)[C@@H](C)O)C(=O)O [Peptide 14, ETAKHWLKGI] (H-ETAKHWLKGI-OH; N-terminus and C-terminus assumed)",pAkt S473 in dermal samples,[1],significantly decreased
same,pAkt S473 in epidermal samples,[1],significantly decreased
same,"at least one of appearance of wrinkles, skin tone (evenness), pores, texture and smoothness, firmness, elasticity, overall appearance","[2]; formulation of Table 5, polypeptides (Peptide 14) 0.001%-4%",reduction
same,appearance of wrinkles,[2]; 50-150 μM Peptide 14,reduction of the appearance of wrinkles
same,appearance of wrinkles,[2]; 75-100 μM Peptide 14,reduction of the appearance of wrinkles
same,worm average lifespan,"[3]; 1 μM, p<0.01",statistically significant increase
same,worm average lifespan,"[3]; 2 μM, p<0.05",statistically significant increase
same,pumping,[3]; day 1,significantly decreased
same,thrashing,[3]; day 1,significantly improved
same,pumping vs control,[3]; day 8,increased
same,thrashing vs control,[3]; day 8,increased
